Drug screen on melanoma cell lines: apoptosis marker

Values as published with doi:10.1371/journal.pone.0140310, rounded.

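Human melanoma cells were exposed to a single drug for 72 h in 1,536-well plates and read by automated microscopy after fixing and staining. Values are the share of nuclei positive for cleaved PARP as a percentage of the same share in the DMSO control: 100 is the control level, higher means more apoptosis. Concentrations were fixed for each drug; these are the higher of two levels. The file gives one value for each drug and line, without errors, so small differences may be noise. Basal and induced levels differ widely between cell lines.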 This is part of the screen, not chosen by result. An entry leaves out what has no value listed here. A dash means that no value is listed here.

Compounds and concentrations:
YM155 (0.002 µM): COCC[n+]1c2c(n(Cc3cnccn3)c1C)C(=O)c1ccccc1C2=O
everolimus (0.1 µM): CO[C@H]1C[C@@H]2CC[C@@H](C)[C@@](O)(O2)C(=O)C(=O)N2CCCC[C@H]2C(=O)O[C@H]([C@H](C)C[C@@H]2CC[C@@H](OCCO)[C@H](OC)C2)CC(=O)[C@H](C)/C=C(\C)[C@@H](O)[C@@H](OC)C(=O)[C@H](C)C[C@H](C)/C=C/C=C/C=C/1C
nilotinib (1 µM): Cc1cn(-c2cc(NC(=O)c3ccc(C)c(Nc4nccc(-c5cccnc5)n4)c3)cc(C(F)(F)F)c2)cn1
U73122 (2 µM): COc1ccc2c(c1)CCC1C2CCC2(C)C(NCCCCCCN3C(=O)C=CC3=O)CCC12 (stereo not given)

Cell line | nilotinib | YM155 | U73122 | everolimus
MZ2-MEL | 50.9 | 536 | 134 | 35.2
IST-MEL1 | 72.3 | 154 | 105 | 180
WM1716 | 232 | 48.9 | 145 | 107
C32 | 75.4 | 118 | 110 | 58.2
RPMI-7951 | 161 | 101 | 81.5 | 79.4
A2058 | 78.4 | 1110 | 99.8 | 104
MeWo | 72.2 | 811 | 53.1 | 28.8
LOX IMVI | 54.8 | 219 | 172 | 108
COLO 792 | 81.7 | 242 | 82.0 | 71.7
SK-MEL-28 | 51.9 | 131 | 40.5 | 126
LB2518-MEL | 54.4 | 316 | 114 | 196
COLO 800 | 174 | 415 | 77.0 | 123
SK-MEL-5 | 156 | 3700 | 285 | 257
IPC-298 | 53.6 | 46.8 | 227 | 272
SK-MEL-30 | 169 | 103 | 85.4 | 108
SK-MEL-2 | 81.9 | 226 | 114 | 88.5
COLO 829 | 81.1 | 138 | 64.5 | 167
WM115 | 72.1 | 300 | 26.0 | 204
WM3526 | 117 | 1810 | 79.7 | 176
501mel | - | - | 84.2 | -
UACC-62 | 163 | 272 | 336 | 353
WM1745 | 183 | 110 | - | 131
MEL-HO | 128 | 104 | 54.7 | 92.0
A375 | 135 | 68.4 | 66.3 | 22.0
RVH-421 | 79.8 | 142 | 81.6 | 214
G-361 | 91.3 | 108 | 107 | 175
WM3619 | 94.5 | 112 | 160 | 124
A101D | 66.3 | 215 | 85.8 | 55.8
WM451Lu | 192 | 171 | 87.6 | 193
UACC-257 | 31.6 | 1140 | 85.1 | 32.0

The last 3 entries again:

{"cell line": "A101D", "nilotinib": 66.3, "YM155": 215, "U73122": 85.8, "everolimus": 55.8}
{"cell line": "WM451Lu", "nilotinib": 192, "YM155": 171, "U73122": 87.6, "everolimus": 193}
{"cell line": "UACC-257", "nilotinib": 31.6, "YM155": 1140, "U73122": 85.1, "everolimus": 32.0}